# From the supplement of paper PMC8728848
# The list shows a part of the results.
# B1: GS13814A-bth-462-26-462 (Bacteroides thetaiotaomicron) (protein)
# chain: DDRDNLMVNDQIGLLHSTYTETEIFRGMDTPYQLFVIKSGKGKQETEVSISVDETVLQSYNTDNGTSIQLLPSDCYTILQPALRLNDSDYRKAFDIKWNADRLSDLLSTGKEYGLPIQMSVVQNFISADDERLKTIIVPTIKEPYLQMDVPGMSPVTDFMPTFGDLNERELFVKIRTNYSNDEDISFQIEVDPQLVIDYNTAHGTAYKMLPESSFTVDNKGVILTGMKETFIKIKYHKKGLIPEEGTYLFGDYVLPLRITSVSKYGISPDAASKLYTVKFQPDPIDKKGWSVIDFNNCCTQDGGWYLNMGWGVESLIDNNPGTQWLCRWDVKEPLPYYFVFDMGKEYTLFRFGFANPVAPAAHVWAGTSKAGYVEASIDNENWVKLKDWTSPKIGEPNVNMDVPATQARYIRFVITDTYPTYDGLRVSLGEVYAWGM
# Columns and labels:
# Test in all cases: glycan array binding signal (z-score within array); higher = stronger binding
# Details in all cases: glycan notation: IUPAC condensed, linker removed
# Neu5Ac(a2-8)Neu5Ac = biological target: Neu5Ac(a2-8)Neu5Ac
# Outline: (§1)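 Negative Z-scores can be read as non-binding. The Z-score is calculated within each array and then averaged across arrays of one protein sequence at different concentrations or buffers and across linkers. Arrays, 3228 in all, were curated from the Consortium for Functional Glycomics database and kept only where the protein sequence was available.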
# [1] = biological target: Neu5Ac(a2-8)Neu5Ac(a2-3)Gal(b1-3)GalNAc(b1-4)[Neu5Ac(a2-3)]Gal(b1-4)Glc
# Outline: as §1
# [2] = biological target: Neu5Ac(a2-8)Neu5Ac(a2-3)Gal(b1-3)GalNAc(b1-4)[Neu5Ac(a2-8)Neu5Ac(a2-3)]Gal(b1-4)Glc
# Outline: as §1
# [3] = biological target: Neu5Ac(a2-8)Neu5Ac(a2-3)Gal(b1-4)Glc
# Outline: as §1
# [4] = biological target: Neu5Ac(a2-8)Neu5Ac(a2-3)Gal(b1-4)GlcNAc
# Outline: as §1
# [5] = biological target: Neu5Ac(a2-8)Neu5Ac(a2-3)[Gal(b1-3)GalNAc(b1-4)]Gal(b1-4)Glc
# Outline: as §1
# [6] = biological target: Neu5Ac(a2-8)Neu5Ac(a2-3)[GalNAc(b1-4)]Gal(b1-4)Glc
# Outline: as §1
# [7] = biological target: Neu5Ac(a2-8)Neu5Ac(a2-8)Neu5Ac
# Outline: as §1
# [8] = biological target: Neu5Ac(a2-8)Neu5Ac(a2-8)Neu5Ac(a2-3)Gal(b1-4)Glc
# Outline: as §1
# [9] = biological target: Neu5Ac(a2-8)Neu5Ac(a2-8)Neu5Ac(a2-3)[Gal(b1-3)GalNAc(b1-4)]Gal(b1-4)Glc
# Outline: as §1
# [10] = biological target: Neu5Ac(a2-8)Neu5Ac(a2-8)Neu5Ac(a2-3)[GalNAc(b1-4)]Gal(b1-4)Glc
# Outline: as §1
# [11] = biological target: Neu5Ac(a2-8)Neu5Ac(a2-8)Neu5Ac(a2-8)Neu5Ac(a2-3)[GalNAc(b1-4)]Gal(b1-4)Glc
# Outline: as §1
# [12] = biological target: Neu5Ac(a2-8)Neu5Gc(a2-3)Gal(b1-4)GlcNAc
# Outline: as §1
# [13] = biological target: Neu5Ac(b2-6)Gal(b1-4)GlcNAc
# Outline: as §1
# Neu5Ac(b2-6)GalNAc = biological target: Neu5Ac(b2-6)GalNAc
# Outline: as §1
# [14] = biological target: Neu5Ac9Ac(a2-3)Gal(b1-3)GlcNAc
# Outline: as §1
# [15] = biological target: Neu5Ac9Ac(a2-3)Gal(b1-4)GlcNAc
# Outline: as §1
# [16] = biological target: Neu5Ac9Ac(a2-6)Gal(b1-4)GlcNAc
# Outline: as §1
# [17] = biological target: Neu5Gc(a2-3)Gal(b1-3)GlcNAc
# Outline: as §1
# [18] = biological target: Neu5Gc(a2-3)Gal(b1-3)[Fuc(a1-4)]GlcNAc
# Outline: as §1
# Neu5Gc(a2-3)Gal(b1-4)Glc = biological target: Neu5Gc(a2-3)Gal(b1-4)Glc
# Outline: as §1
# [19] = biological target: Neu5Gc(a2-3)Gal(b1-4)GlcNAc
# Outline: as §1
# [20] = biological target: Neu5Gc(a2-3)Gal(b1-4)GlcNAc(b1-3)Gal(b1-4)GlcNAc(b1-2)Man(a1-3)[Neu5Gc(a2-3)Gal(b1-4)GlcNAc(b1-3)Gal(b1-4)GlcNAc(b1-2)Man(a1-6)]Man(b1-4)GlcNAc(b1-4)GlcNAc
# Outline: as §1
# [21] = biological target: Neu5Gc(a2-3)Gal(b1-4)[Fuc(a1-3)]GlcNAc
# Outline: as §1
# [22] = biological target: Neu5Gc(a2-6)Gal(b1-4)GlcNAc
# Outline: as §1
# Neu5Gc(a2-6)GalNAc = biological target: Neu5Gc(a2-6)GalNAc
# Outline: as §1
# [23] = biological target: Neu5Gc(a2-8)Neu5Ac(a2-3)Gal(b1-4)GlcNAc
# Outline: as §1
# [24] = biological target: Neu5Gc(a2-8)Neu5Gc(a2-3)Gal(b1-4)GlcNAc
# Outline: as §1
# [25] = biological target: Neu5Gc(a2-8)Neu5Gc(a2-3)Gal(b1-4)GlcNAc(b1-3)Gal(b1-4)GlcNAc
# Outline: as §1
# [26] = biological target: Neu5Gc(a2-8)Neu5Gc(a2-6)Gal(b1-4)GlcNAc
# Outline: as §1
# [27] = biological target: Neu5Gc(b2-6)Gal(b1-4)GlcNAc
# Outline: as §1
binder,measurement,setting,value
B1,glycan array binding signal (z-score),Neu5Ac(a2-8)Neu5Ac,0.849
same,glycan array binding signal (z-score),[1],-0.32
same,glycan array binding signal (z-score),[2],0.933
same,glycan array binding signal (z-score),[3],-0.694
same,glycan array binding signal (z-score),[4],-1.27
same,glycan array binding signal (z-score),[5],0.136
same,glycan array binding signal (z-score),[6],0.343
same,glycan array binding signal (z-score),[7],-0.33
same,glycan array binding signal (z-score),[8],-1.35
same,glycan array binding signal (z-score),[9],-0.216
same,glycan array binding signal (z-score),[10],0.634
same,glycan array binding signal (z-score),[11],-0.032
same,glycan array binding signal (z-score),[12],-1.02
same,glycan array binding signal (z-score),[13],-0.696
same,glycan array binding signal (z-score),Neu5Ac(b2-6)GalNAc,-0.699
same,glycan array binding signal (z-score),[14],0.744
same,glycan array binding signal (z-score),[15],-0.633
same,glycan array binding signal (z-score),[16],-0.306
same,glycan array binding signal (z-score),[17],-0.264
same,glycan array binding signal (z-score),[18],-0.767
same,glycan array binding signal (z-score),Neu5Gc(a2-3)Gal(b1-4)Glc,0.433
same,glycan array binding signal (z-score),[19],1.47
same,glycan array binding signal (z-score),[20],-0.487
same,glycan array binding signal (z-score),[21],-0.204
same,glycan array binding signal (z-score),[22],1.43
same,glycan array binding signal (z-score),Neu5Gc(a2-6)GalNAc,0.092
same,glycan array binding signal (z-score),[23],-0.879
same,glycan array binding signal (z-score),[24],-0.502
same,glycan array binding signal (z-score),[25],1.31
same,glycan array binding signal (z-score),[26],-0.069
same,glycan array binding signal (z-score),[27],-0.067

# At a glance, some entries already given.
binder,measurement,setting,value
B1,glycan array binding signal (z-score),[20],-0.487
same,glycan array binding signal (z-score),[21],-0.204
